Reference: paper PMC7480108
Results are given in words; binding and its absence hold for the method and conditions named. In cells and extracts the contact can be indirect. Sequences can lack the tags named with a protein.

Target: T1, TKS4^GFP (UniProt A1X283)
T1 sequence: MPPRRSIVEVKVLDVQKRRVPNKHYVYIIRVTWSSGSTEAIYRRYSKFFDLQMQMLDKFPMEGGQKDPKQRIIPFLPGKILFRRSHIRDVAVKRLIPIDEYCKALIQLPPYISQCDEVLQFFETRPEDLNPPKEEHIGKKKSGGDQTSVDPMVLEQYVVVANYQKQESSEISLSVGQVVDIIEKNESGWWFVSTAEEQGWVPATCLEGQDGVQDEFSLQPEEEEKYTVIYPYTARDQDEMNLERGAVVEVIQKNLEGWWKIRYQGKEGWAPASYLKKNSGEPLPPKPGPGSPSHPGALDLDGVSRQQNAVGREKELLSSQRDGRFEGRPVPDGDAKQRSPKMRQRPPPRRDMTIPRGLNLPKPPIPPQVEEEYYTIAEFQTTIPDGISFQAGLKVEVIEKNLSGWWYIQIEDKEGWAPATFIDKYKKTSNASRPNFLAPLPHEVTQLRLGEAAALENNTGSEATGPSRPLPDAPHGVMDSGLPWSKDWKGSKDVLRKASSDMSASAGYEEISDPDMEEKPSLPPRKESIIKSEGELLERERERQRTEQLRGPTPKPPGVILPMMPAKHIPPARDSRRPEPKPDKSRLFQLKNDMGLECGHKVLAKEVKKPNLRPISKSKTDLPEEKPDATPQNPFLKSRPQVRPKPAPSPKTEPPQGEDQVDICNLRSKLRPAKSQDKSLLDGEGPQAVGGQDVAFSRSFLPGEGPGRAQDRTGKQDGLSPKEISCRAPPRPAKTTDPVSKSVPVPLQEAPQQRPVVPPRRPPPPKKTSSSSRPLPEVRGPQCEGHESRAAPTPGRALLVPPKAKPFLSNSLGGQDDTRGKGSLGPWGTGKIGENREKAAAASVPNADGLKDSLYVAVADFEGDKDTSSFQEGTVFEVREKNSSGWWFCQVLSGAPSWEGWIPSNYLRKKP
Assay: co-IP; GFP-Trap (anti-GFP nanobody beads) from NP-40 lysates of MDA-MB-231 cells expressing GFP-tagged constructs, 1 h 4°C; immunoblotting of bound proteins

binding: no binding
B1: endogenous FGD1 (faciogenital dysplasia protein 1) (protein, UniProt P98174 1-961)
chain: MHGHRAPGGAGPSEPEHPATNPPGAAPPACADSDPGASEPGLLARRGSGSALGGPLDPQFVGPSDTSLGAAPGHRVLPCGPSPQHHRALRFSYHLEGSQPRPGLHQGNRILVKSLSLDPGQSLEPHPEGPQRLRSDPGPPTETPSQRPSPLKRAPGPKPQVPPKPSYLQMPRMPPPLEPIPPPPSRPLPADPRVAKGLAPRAEASPSSAAVSSLIEKFEREPVIVASDRPVPGPSPGPPEPVMLPQPTSQPPVPQLPEGEASRCLFLLAPGPRDGEKVPNRDSGIDSISSPSNSEETCFVSDDGPPSHSLCPGPPALASVPVALADPHRPGSQEVDSDLEEEDDEEEEEEKDREIPVPLMERQESVELTVQQKVFHIANELLQTEKAYVSRLHLLDQVFCARLLEEARNRSSFPADVVHGIFSNICSIYCFHQQFLLPELEKRMEEWDRYPRIGDILQKLAPFLKMYGEYVKNFDRAVELVNTWTERSTQFKVIIHEVQKEEACGNLTLQHHMLEPVQRIPRYELLLKDYLLKLPHGSPDSKDAQKSLELIATAAEHSNAAIRKMERMHKLLKVYELLGGEEDIVSPTKELIKEGHILKLSAKNGTTQDRYLILFNDRLLYCVPRLRLLGQKFSVRARIDVDGMELKESSNLNLPRTFLVSGKQRSLELQARTEEEKKDWVQAINSTLLKHEQTLETFKLLNSTNREDEDTPPNSPNVDLGKRAPTPIREKEVTMCMRCQEPFNSITKRRHHCKACGHVVCGKCSEFRARLVYDNNRSNRVCTDCYVALHGVPGSSPACSQHTPQRRRSILEKQASVAAENSVICSFLHYMEKGGKGWHKAWFVVPENEPLVLYIYGAPQDVKAQRSLPLIGFEVGPPEAGERPDRRHVFKITQSHLSWYFSPETEELQRRWMAVLGRAGRGDTFCPGPTLSEDREMEEAPVAALGATAEPPESPQTRDKT
